# Laboratory results reported in the supplement of paper PMC12819154, “High-throughput peptide-centric local stability assay extends protein–ligand identification to membrane proteins, tissues and bacteria” (Nature Structural & Molecular Biology, 2025).
# Chains of the proteins cited; added tags and fusions are not shown. Lines headed by an entry give the natural chain unless they say otherwise; changes in a name come on top.
# UniProt P14209: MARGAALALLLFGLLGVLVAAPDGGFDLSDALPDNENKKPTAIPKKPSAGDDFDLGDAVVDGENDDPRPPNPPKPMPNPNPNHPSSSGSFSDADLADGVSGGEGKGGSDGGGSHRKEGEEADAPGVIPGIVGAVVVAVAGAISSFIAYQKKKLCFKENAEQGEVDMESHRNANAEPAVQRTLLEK
# UniProt P20810: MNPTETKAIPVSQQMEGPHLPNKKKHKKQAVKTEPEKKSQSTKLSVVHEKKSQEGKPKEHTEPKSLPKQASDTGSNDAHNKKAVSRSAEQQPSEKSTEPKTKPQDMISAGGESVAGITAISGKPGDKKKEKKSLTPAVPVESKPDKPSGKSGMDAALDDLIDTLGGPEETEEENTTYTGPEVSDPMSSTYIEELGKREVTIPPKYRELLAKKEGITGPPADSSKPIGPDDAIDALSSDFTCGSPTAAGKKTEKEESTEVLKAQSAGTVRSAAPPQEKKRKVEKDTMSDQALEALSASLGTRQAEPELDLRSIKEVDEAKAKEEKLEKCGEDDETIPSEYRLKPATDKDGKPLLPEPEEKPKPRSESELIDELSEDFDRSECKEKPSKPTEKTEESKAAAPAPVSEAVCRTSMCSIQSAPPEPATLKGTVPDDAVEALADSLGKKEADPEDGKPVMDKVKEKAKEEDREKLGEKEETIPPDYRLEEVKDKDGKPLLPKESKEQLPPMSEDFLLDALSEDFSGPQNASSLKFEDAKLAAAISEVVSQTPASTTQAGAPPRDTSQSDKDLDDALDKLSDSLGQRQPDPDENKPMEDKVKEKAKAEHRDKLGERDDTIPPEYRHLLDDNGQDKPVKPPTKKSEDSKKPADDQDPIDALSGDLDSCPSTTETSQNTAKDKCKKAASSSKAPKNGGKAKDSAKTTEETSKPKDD
# UniProt P16403, whole entry: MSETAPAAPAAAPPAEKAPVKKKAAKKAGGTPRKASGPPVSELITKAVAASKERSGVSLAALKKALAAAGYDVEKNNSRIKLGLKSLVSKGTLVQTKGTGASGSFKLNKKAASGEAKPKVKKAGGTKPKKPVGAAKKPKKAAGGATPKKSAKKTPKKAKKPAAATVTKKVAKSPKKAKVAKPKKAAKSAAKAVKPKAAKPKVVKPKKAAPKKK
# UniProt P22234: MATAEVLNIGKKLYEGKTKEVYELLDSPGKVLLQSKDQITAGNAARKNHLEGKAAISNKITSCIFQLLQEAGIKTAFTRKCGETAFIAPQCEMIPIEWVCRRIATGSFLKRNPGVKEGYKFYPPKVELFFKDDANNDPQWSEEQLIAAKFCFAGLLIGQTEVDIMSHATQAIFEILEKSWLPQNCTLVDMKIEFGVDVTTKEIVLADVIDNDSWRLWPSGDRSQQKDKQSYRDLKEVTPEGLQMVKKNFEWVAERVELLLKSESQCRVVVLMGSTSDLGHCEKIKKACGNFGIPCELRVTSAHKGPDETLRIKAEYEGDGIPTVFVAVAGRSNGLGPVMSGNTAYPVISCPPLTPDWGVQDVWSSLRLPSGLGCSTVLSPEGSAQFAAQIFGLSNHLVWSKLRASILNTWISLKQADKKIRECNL
# UniProt P25440, whole entry, looked up: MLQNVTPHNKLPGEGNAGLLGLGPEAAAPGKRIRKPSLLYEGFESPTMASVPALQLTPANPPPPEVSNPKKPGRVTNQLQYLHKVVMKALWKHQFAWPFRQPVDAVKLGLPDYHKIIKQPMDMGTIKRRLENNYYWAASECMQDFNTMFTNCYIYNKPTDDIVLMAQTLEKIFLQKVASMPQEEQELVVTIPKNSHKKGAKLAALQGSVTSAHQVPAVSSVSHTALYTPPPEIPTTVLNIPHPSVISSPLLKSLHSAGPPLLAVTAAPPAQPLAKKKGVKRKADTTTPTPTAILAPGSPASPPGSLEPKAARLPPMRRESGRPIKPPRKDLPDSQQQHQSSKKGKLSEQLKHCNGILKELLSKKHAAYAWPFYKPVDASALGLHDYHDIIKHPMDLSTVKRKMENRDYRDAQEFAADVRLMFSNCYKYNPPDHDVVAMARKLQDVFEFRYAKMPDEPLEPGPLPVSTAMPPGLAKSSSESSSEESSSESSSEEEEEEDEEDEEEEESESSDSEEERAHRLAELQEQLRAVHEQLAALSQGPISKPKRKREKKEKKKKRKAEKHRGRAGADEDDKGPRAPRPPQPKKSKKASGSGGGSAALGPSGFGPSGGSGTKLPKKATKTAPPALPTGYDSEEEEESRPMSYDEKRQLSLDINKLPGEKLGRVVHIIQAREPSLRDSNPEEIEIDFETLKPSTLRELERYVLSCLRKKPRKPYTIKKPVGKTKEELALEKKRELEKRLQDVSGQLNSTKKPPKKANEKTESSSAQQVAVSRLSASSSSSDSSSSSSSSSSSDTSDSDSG
# UniProt P17405: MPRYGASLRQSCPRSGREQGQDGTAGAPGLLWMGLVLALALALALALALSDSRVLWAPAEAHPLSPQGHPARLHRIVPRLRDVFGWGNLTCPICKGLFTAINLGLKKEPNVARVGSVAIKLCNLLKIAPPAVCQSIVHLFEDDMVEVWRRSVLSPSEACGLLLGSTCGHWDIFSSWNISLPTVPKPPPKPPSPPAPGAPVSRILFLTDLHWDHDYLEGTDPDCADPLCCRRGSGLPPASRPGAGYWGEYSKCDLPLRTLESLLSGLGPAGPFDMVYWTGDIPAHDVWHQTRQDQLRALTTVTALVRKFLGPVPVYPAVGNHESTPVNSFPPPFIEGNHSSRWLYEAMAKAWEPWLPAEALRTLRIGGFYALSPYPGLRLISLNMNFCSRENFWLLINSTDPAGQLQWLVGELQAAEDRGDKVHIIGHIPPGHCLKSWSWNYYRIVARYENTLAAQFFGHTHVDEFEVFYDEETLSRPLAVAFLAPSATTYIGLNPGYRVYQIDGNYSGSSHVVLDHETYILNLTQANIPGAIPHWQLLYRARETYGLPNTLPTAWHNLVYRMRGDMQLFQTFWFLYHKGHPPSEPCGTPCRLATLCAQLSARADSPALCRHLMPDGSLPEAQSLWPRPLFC
# UniProt P26639: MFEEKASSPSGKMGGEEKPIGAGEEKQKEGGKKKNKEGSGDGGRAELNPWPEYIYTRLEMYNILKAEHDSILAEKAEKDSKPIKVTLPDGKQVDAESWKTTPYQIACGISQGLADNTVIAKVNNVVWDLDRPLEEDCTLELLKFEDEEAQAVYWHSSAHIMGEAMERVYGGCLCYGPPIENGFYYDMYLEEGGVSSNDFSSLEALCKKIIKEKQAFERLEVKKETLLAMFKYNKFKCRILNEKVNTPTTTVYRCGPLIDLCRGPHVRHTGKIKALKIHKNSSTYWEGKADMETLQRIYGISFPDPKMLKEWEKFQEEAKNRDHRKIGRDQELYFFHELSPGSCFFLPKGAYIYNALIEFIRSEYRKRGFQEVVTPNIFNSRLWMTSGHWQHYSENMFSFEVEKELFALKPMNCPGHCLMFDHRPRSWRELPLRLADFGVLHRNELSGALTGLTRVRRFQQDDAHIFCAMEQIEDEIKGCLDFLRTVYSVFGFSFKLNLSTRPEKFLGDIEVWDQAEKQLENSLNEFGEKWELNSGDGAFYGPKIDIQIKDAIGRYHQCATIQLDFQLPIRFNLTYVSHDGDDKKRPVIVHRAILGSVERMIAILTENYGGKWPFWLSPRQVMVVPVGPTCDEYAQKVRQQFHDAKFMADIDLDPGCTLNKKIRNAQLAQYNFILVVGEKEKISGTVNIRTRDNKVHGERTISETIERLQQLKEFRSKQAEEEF
# UniProt P16157: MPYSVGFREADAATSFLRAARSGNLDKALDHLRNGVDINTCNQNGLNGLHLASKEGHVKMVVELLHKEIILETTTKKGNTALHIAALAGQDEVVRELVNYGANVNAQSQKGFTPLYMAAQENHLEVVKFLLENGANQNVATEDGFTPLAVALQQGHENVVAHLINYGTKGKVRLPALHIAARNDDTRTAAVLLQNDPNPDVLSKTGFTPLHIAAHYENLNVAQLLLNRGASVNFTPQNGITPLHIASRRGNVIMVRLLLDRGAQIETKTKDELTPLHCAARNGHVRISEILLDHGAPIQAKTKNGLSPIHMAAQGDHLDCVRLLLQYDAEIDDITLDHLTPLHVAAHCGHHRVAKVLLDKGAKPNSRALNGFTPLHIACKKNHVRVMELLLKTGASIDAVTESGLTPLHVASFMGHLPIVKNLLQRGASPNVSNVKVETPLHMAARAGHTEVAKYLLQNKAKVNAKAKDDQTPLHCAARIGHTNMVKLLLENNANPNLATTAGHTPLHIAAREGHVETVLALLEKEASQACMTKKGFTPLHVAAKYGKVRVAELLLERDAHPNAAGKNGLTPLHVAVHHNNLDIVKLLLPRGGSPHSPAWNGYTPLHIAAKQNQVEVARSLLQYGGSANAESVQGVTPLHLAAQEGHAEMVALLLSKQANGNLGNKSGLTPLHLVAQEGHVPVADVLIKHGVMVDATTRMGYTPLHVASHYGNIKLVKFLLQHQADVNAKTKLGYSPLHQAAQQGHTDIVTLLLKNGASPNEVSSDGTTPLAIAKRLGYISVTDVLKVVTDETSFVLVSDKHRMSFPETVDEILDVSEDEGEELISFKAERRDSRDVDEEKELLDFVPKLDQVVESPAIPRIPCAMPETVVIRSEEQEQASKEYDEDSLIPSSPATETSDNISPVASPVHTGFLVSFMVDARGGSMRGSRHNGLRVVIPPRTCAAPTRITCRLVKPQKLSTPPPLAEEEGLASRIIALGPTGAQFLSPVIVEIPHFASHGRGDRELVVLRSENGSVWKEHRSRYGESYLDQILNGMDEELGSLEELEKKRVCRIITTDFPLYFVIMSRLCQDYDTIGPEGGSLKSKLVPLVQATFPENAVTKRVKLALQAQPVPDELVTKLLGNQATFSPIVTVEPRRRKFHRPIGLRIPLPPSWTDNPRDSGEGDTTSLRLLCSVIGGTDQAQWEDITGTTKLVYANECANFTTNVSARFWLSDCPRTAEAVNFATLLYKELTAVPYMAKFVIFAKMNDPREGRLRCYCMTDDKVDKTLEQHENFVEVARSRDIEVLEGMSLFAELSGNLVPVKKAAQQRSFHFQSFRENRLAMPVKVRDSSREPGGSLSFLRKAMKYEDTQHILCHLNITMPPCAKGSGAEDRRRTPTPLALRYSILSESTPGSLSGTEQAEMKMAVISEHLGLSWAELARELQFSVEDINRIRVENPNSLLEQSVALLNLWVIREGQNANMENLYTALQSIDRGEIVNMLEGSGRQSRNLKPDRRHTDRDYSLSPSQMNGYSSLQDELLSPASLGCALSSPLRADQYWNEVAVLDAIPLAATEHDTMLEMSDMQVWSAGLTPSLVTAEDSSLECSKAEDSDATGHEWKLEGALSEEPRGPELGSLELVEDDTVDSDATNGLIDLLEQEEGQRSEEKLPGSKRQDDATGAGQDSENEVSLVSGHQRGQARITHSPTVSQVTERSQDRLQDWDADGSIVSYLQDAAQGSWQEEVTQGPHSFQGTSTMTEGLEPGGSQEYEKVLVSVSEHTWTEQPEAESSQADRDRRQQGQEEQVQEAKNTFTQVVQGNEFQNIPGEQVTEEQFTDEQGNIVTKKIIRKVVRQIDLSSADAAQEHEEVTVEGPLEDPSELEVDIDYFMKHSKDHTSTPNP
# UniProt P19419: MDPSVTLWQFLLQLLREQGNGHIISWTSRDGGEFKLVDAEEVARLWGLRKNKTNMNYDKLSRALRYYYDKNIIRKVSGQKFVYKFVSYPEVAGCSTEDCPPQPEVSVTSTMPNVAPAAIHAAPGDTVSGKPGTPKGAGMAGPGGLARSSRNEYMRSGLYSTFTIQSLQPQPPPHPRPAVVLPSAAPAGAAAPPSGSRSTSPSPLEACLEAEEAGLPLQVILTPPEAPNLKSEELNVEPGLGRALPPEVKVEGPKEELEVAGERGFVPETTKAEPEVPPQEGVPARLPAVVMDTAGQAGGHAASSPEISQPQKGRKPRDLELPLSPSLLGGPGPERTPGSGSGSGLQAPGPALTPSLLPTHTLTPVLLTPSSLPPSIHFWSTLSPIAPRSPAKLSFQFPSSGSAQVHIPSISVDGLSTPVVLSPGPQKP
# UniProt P17098: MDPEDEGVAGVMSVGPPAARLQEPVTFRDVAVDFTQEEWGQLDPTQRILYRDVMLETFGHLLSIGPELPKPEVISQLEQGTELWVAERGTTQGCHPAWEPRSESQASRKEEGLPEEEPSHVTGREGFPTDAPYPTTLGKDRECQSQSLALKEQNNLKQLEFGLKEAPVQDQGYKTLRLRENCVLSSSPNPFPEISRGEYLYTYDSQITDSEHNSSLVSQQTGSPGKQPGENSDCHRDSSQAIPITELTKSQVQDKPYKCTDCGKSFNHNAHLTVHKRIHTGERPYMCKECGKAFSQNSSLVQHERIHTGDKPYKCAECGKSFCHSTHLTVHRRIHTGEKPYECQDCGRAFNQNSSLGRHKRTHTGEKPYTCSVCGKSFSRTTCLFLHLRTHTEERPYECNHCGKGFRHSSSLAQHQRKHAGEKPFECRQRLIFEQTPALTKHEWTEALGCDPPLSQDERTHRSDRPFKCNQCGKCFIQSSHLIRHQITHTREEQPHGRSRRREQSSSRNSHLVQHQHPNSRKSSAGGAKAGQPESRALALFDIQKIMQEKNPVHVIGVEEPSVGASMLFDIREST
# The other results are listed elsewhere or left out. Small differences around the control level are noise.
# Compound: Cc1nc(Nc2ncc(C(=O)Nc3c(C)cccc3Cl)s2)cc(N2CCN(CCO)CC2)n1 [dasatinib]
# Experiment: log2 fold change of tryptic peptide abundance, ligand vs vehicle (limited proteolysis) (log2 ratio); higher = more trypsin-susceptible (destabilized)
# Settings: ligand concentration: 5 uM; sample: K562 cleared lysate
row,Target,log2 fold change
1,"CD99 (peptide sequence: ENAEQGEVDMESHR, peptide start residue: 157) (UniProt P14209)",-0.202
2,"CAST (peptide sequence: SQEGKPKEHTEPK, peptide start residue: 52) (UniProt P20810)",-0.889
3,"GLB1 (peptide sequence: NKDSWLDHV, peptide start residue: 669) (UniProt P16278)",-0.348
4,"STMN1 (peptide sequence: ESVPEFPLSPPKKK, peptide start residue: 30) (UniProt P16949)",-0.225
5,"HIST1H1C (peptide sequence: PAAATVTKK, peptide start residue: 161) (UniProt P16403)",-0.143
6,"PAICS (peptide sequence: EVYELLDSPGKVLLQSK, peptide start residue: 20) (UniProt P22234)",0.335
7,"NCK1 (peptide sequence: FDYVAQQEQELDIKKNER, peptide start residue: 11) (UniProt P16333)",-0.787
8,"UniProt P17017 (peptide sequence: WEDQDIEDDHRNQGK, peptide start residue: 47)",0.459
9,"IMPDH1 (peptide sequence: YRGMGSLDAMEK, peptide start residue: 411) (UniProt P20839)",0.153
10,"BRD2 (peptide sequence: VVHIIQAR, peptide start residue: 665) (UniProt P25440)",-0.273
11,"UniProt P17252 (peptide sequence: AEVADEKLHVTVR, peptide start residue: 166)",-0.542
12,"UniProt P27448 (peptide sequence: IPFYMSTDCENLLKR, peptide start residue: 272)",0.682
13,"UniProt P19784 (peptide sequence: EAMEHPYFYPVVK, peptide start residue: 318)",0.447
14,"CALB2 (peptide sequence: LLPVQENFLLK, peptide start residue: 170) (UniProt P22676)",0.213
15,"PPIB (peptide sequence: DKPLKDVIIADCGK, peptide start residue: 191) (UniProt P23284)",-0.394
16,"CD46 (peptide sequence: GTYLTDETHR, peptide start residue: 376) (UniProt P15529)",-0.166
17,"CBL (peptide sequence: KSSGAGGGSGSGGSGSGGLIGLMK, peptide start residue: 7) (UniProt P22681)",-0.581
18,"VAV1 (peptide sequence: DFVNLHSFQVR, peptide start residue: 445) (UniProt P15498)",0.162
19,"RPS3 (peptide sequence: GCEVVVSGKLRGQR, peptide start residue: 133) (UniProt P23396)",1.02
20,"SMPD1 (peptide sequence: VGSVAIKLCNLLK, peptide start residue: 114) (UniProt P17405)",0.323
21,"UniProt P26639 (peptide sequence: CGPLIDLCR, peptide start residue: 254)",-0.279
22,"HIST1H1B (peptide sequence: RKATGPPVSELITK, peptide start residue: 36) (UniProt P16401)",-0.443
23,"ANK1 (peptide sequence: VAELLLERDAHPNAAGK, peptide start residue: 551) (UniProt P16157)",0.355
24,"ELK1 (peptide sequence: NKTNMNYDKLSR, peptide start residue: 51) (UniProt P19419)",-0.323
25,"PRKCSH (peptide sequence: DMEESIR, peptide start residue: 386) (UniProt P14314)",0.143
26,"RPL35A (peptide sequence: SGRLWSKAIFAGYK, peptide start residue: 2) (UniProt P18077)",-0.266
27,"ZNF8 (peptide sequence: EAPVQDQGYK, peptide start residue: 165) (UniProt P17098)",0.225

# Six entries from above, with bars between the fields:
row | Target | log2 fold change
2 | CAST (peptide sequence: SQEGKPKEHTEPK, peptide start residue: 52) (UniProt P20810) | -0.889
3 | GLB1 (peptide sequence: NKDSWLDHV, peptide start residue: 669) (UniProt P16278) | -0.348
4 | STMN1 (peptide sequence: ESVPEFPLSPPKKK, peptide start residue: 30) (UniProt P16949) | -0.225
5 | HIST1H1C (peptide sequence: PAAATVTKK, peptide start residue: 161) (UniProt P16403) | -0.143
6 | PAICS (peptide sequence: EVYELLDSPGKVLLQSK, peptide start residue: 20) (UniProt P22234) | 0.335
7 | NCK1 (peptide sequence: FDYVAQQEQELDIKKNER, peptide start residue: 11) (UniProt P16333) | -0.787
